## Results of single-concentration screens

Results are given as percent effect. The record does not define 0% and 100%; most values in the screen are far below 50% and negative numbers occur (in some assays of this library far below -100). The compounds are a random part of those screened.

T. brucei: 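Whole-parasite assay of Trypanosoma brucei over 72 hours; the read-out is not stated. Concentration: 30 µM. The record gives no direction; compounds that gave an IC50 in retests scored well above the rest, so higher reads as stronger inhibition. Values scatter widely below zero; nearly all retest evidence comes from the higher of the two concentrations used. About 64,000 compounds were tested under these conditions; 1.5% (about 940) showed 50% or more at least once.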
Toxoplasma: 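Assay of Toxoplasma gondii numbers, read through their beta-galactosidase reporter with a colour substrate. Concentration: 10 µM. Higher reads as fewer parasites (inferred from which compounds were picked for retests). About 67,000 compounds were tested under these conditions; 0.38% (about 260) showed 50% or more at least once.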

For Cc1noc(Cl)c1CC(=O)N1CCC(Nc2cccnn2)CC1 the result was T. brucei: 19.64%; Toxoplasma: 1.184%.
For CCN1CCN(C(=O)c2ccc(=O)n(C)c2)c2ccccc21 the result was T. brucei: -19.26%; Toxoplasma: 2.265%.
For CCCn1nccc1C(=O)N1CCCC(C(=O)CCc2ccccc2)C1 (stereo not drawn) the result was T. brucei: -41.46%; Toxoplasma: 18.9%.
For CC(NC(=O)Nc1nccs1)c1ccc(S(C)(=O)=O)cc1 (stereo not drawn) the result was T. brucei: 3.833%; Toxoplasma: 3.894%.
For CCOC1COC2(CCN(Cc3ccc(C)cc3)CC2)C1.O=C(O)C(F)(F)F (stereo not drawn) the result was T. brucei: -1.145%; Toxoplasma: -3.143%.
For CCNC(=O)[C@@H]1C[C@@H](NC(=O)c2ccsc2)CN1CCCSC the result was T. brucei: -19.36%; Toxoplasma: -26.55%.
For O=S(=O)(Nc1ccon1)c1cc(Cl)cc2c1OCC2 the result was T. brucei: -11.4%; Toxoplasma: -4.615%.
For O=C(C1CCCC1)N1CCC(Nc2ccncn2)CC1 the result was Toxoplasma: 0.2835%.
For O=C1NC2(CCN(C(=O)c3ccc(Cl)cn3)CC2)CC1c1ccccc1 (stereo not drawn) the result was T. brucei: -25.26%; Toxoplasma: -13.85%.
For Cc1nn(C)c(Cl)c1CN1CCN(c2nccs2)C(C)C1 (stereo not drawn) the result was T. brucei: -35.19%; Toxoplasma: 7.987%.
For N#Cc1cc(S(N)(=O)=O)ccc1NC1CCc2c(F)cccc21 (stereo not drawn) the result was T. brucei: 3.945%; Toxoplasma: 1.658%.
For COCCC(=O)N1CCC2(COCc3cnc(N(C)C)nc32)C1 (stereo not drawn) the result was T. brucei: -246%; Toxoplasma: -50.96%.
For CC[C@H](C)Nc1nccc(-c2cnc3sc(C)cn3c2=O)n1 the result was T. brucei: 4.182%; Toxoplasma: -1.27%.
For CC(C)[C@H]1CN(C(=O)CO)C[C@@H]1N(C)C the result was T. brucei: -17.65%; Toxoplasma: 9.786%.
For COc1ccc(F)cc1CN1CCC(O)(CN2CCCCC2)C1 (stereo not drawn) the result was T. brucei: 34.51%.
For COc1ncccc1CN1CCc2[nH]nc(C(=O)N3CCCC3C)c2C1.O=C(O)C(F)(F)F.O=C(O)C(F)(F)F (stereo not drawn) the result was T. brucei: -15.2%; Toxoplasma: -16.94%.
For Nc1ncccc1C(=O)NCc1cccc(Br)c1 the result was Toxoplasma: 3.838%.
For NC(=O)c1cnc2n1CCN(C(=O)c1ccc(Cn3cccc3)cc1)C2 the result was T. brucei: -20.53%; Toxoplasma: 9.88%.
For COc1ccc2c3c1CN(C(C)=O)CC3=CC(C)(C)CO2 the result was T. brucei: -6.976%; Toxoplasma: 2.316%.
For [H][C@@]12CNC(=O)N1CCN(C1CCN(C)CC1)C2 the result was T. brucei: -8.82%; Toxoplasma: -4.586%.
For O=C(O)C(F)(F)F.[H][C@@]12CCN(Cc3ccc(F)cc3)C[C@]1(C(=O)N1CCCO1)CCO2 the result was T. brucei: -7.979%; Toxoplasma: 15.63%.
For COc1ccc2nc(CNC(=O)C3CC4(CCNCC4)CN3C)[nH]c2c1 (stereo not drawn) the result was T. brucei: -33.95%; Toxoplasma: -17.19%.
For O=C1NCCN1C1CCN(Cc2nc(-c3ccsc3)no2)CC1 the result was T. brucei: 12.24%; Toxoplasma: 10.94%.
For O=C(c1ccc(Cl)cc1)N1CCC(N2CCOC2=O)CC1 the result was Toxoplasma: 4.094%.
For Cc1ccc(O)c(CNc2cccc(CN3CCN(C)CC3)c2)n1 the result was T. brucei: -23.16%; Toxoplasma: -6.698%.
For CN(Cc1nnc2n1CCC2)S(=O)(=O)c1ccc(Br)cc1Cl the result was T. brucei: 1.333%; Toxoplasma: -3.202%.
For [H][C@@]12C[C@H](C(=O)NCC3CC3)[C@@]([H])(CN(C(=O)NCC3CCCCC3)C1)O2 the result was T. brucei: -52.72%; Toxoplasma: -2.535%.
For O=C(CSC1CCc2ccccc2NC1=O)Nc1ccc(CCO)cc1 (stereo not drawn) the result was T. brucei: 0.6328%; Toxoplasma: -0.8725%.
For CCc1ccc(CC(=O)N2CCN(c3nccn3C)CC2)cc1 the result was T. brucei: 0.4686%; Toxoplasma: 9.049%.
For Cc1cccc(CNc2ccc(C(=O)N3CCC(CO)CC3)cc2)c1 the result was T. brucei: 11.07%; Toxoplasma: 1.285%.
For COCCOc1ccnc(-c2noc([C@@H]3CCCN3CC(C)C)n2)c1 the result was T. brucei: -14.41%; Toxoplasma: -7.145%.
For CNc1ncc(-c2ccc(NC(=O)[C@@H]3CCCCN3)cc2)cn1 the result was T. brucei: 7.595%; Toxoplasma: 7.318%.
For [H][C@@]12CCN(C(=O)c3cnccn3)C[C@@]1([H])O[C@H](c1ccncn1)C2 the result was T. brucei: 27.48%; Toxoplasma: 2.794%.
For CCCC(=O)Nc1cccc([C@H]2C[C@@H](NC(C)=O)CCO2)c1 the result was T. brucei: 6.611%; Toxoplasma: -5.364%.
For O=C(O)C(F)(F)F.[H][C@]12CCC[C@@]1(COc1ccccn1)CN(C(=O)CS(C)(=O)=O)C2 the result was T. brucei: -20.95%; Toxoplasma: -29.03%.
For CNC(=O)CC1CC2(CCN(CC3CC3)CC2)Oc2ccccc21.O=C(O)C(F)(F)F (stereo not drawn) the result was T. brucei: -8.019%; Toxoplasma: -15.64%.

Data taken from ChEMBL document CHEMBL3988442, “University of Dundee, Small-Polar-MMV Screening Library” (2021).